Measurements reported in PubChem BioAssay AID1224826 (NIAID, 2016)
In all, the deposit lists about 17,000 reagents; shown is an unselected part. About 1,110 of all reagents (6.6%) were called active. 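Active means lowered or raised reporter signal; replicate intensities are raw and not normalised per plate.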 The numbers tell different reagents against one gene apart. Further read-outs or replicates are left out here. No sequences are given here.

Purpose: 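Knock-downs that raise or lower Tnf reporter signal after endotoxin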 (primary screen)
Cells: RAW264.7 G9 macrophages from mouse bearing reporters for p65 (GFP) and the Tnf promoter (mCherry)
Reagent: siRNA pool against mouse genes, 100 nM
Time to read-out: 16 h of LPS stimulation, after 2 days of siRNA transfection
Treatment: bacterial lipopolysaccharide (Salmonella minnesota R595), 10 ng/ml
Read-out: 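Nuclear mCherry signal of the Tnf promoter reporter measured by imaging after background removal, scaled to each plate median and turned into robust z-scores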
Scale: Tnf reporter robust z-score: higher = stronger Tnf promoter reporter signal after LPS
Active means: 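a well counts as active at a score of -1.3 or below (Tlr4 knock-down control median) or above 3 (raised signal); controls and wells holding fewer than 50 cells are excluded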
Calls: active = Tnf reporter clearly lowered or raised; inactive = no clear change in Tnf reporter

Gene | reagent | Tnf reporter robust z-score | fewer than 50 cells in well | Call
Map3k1 (mitogen-activated protein kinase kinase kinase 1) | 1 | -0.62 | enough cells in well | inactive
Fry (FRY microtubule binding protein) | 1 | 0.23 | enough cells in well | inactive
Fry (FRY microtubule binding protein) | 2 | -0.43 | enough cells in well | inactive
Or52ae7 (olfactory receptor family 52 subfamily AE member 7) | 1 | 0.65 | enough cells in well | inactive
Pitx1 (paired-like homeodomain transcription factor 1) | 1 | -0.48 | enough cells in well | inactive
Entpd3 (ectonucleoside triphosphate diphosphohydrolase 3) | 1 | 0.16 | enough cells in well | inactive
Abo | 1 | 0.18 | enough cells in well | inactive
Pdcd7 (programmed cell death 7) | 1 | – | fewer than 50 cells per well; well left out of calls | inactive
Tmc5 (transmembrane channel-like gene family 5) | 1 | – | fewer than 50 cells per well; well left out of calls | inactive

Continued; the last 3 above are carried over.
Gene | reagent | Tnf reporter robust z-score | fewer than 50 cells in well | Call
Abo | 1 | 0.18 | enough cells in well | inactive
Pdcd7 (programmed cell death 7) | 1 | – | fewer than 50 cells per well; well left out of calls | inactive
Tmc5 (transmembrane channel-like gene family 5) | 1 | – | fewer than 50 cells per well; well left out of calls | inactive
Ttc5 (tetratricopeptide repeat domain 5) | 1 | -0.85 | enough cells in well | inactive
Pde12 (phosphodiesterase 12) | 1 | -0.06 | enough cells in well | inactive
Hacd2 (3-hydroxyacyl-CoA dehydratase 2) | 1 | 0.13 | enough cells in well | inactive
Ddx46 (DEAD box helicase 46) | 1 | -0.07 | enough cells in well | inactive
Ube2q1 (ubiquitin-conjugating enzyme E2Q family member 1) | 1 | -1.04 | enough cells in well | inactive
Hbp1 (high mobility group box transcription factor 1) | 1 | 0.21 | enough cells in well | inactive
Siglecf (sialic acid binding Ig-like lectin F) | 1 | 0.2 | enough cells in well | inactive
Ntf5 (neurotrophin 5) | 1 | 1.03 | enough cells in well | inactive
Galnt12 (polypeptide N-acetylgalactosaminyltransferase 12) | 1 | -0.87 | enough cells in well | inactive
Fam149a (family with sequence similarity 149, member A) | 1 | 0.07 | enough cells in well | inactive
Esco2 | 1 | – | fewer than 50 cells per well; well left out of calls | inactive
Vmn1r29 (vomeronasal 1 receptor 29) | 1 | 0.7 | enough cells in well | inactive
Or7g16 (olfactory receptor family 7 subfamily G member 16) | 1 | 1.99 | enough cells in well | inactive
Krt23 (keratin 23) | 1 | 0.55 | enough cells in well | inactive
Eri2 (exoribonuclease 2) | 1 | 0.28 | enough cells in well | inactive
